# Source: patent US20030003547
# The exact form of at least one protein or probe is not confirmed.
# Test system: XbaI restriction endonuclease
# Assay: enzyme reaction in vitro
# Details: joint molecules with TFOØ-S+R (no triplex) are cleaved; purified recombinant protein; only the site is given
sequence,measurement,value
CGTCTAGAAAAGAAAAGGGGGGATACGC (double strand) [Y0Gorec plasmid triplex target (XbaI site overlapping)],activity on this sequence,active
